Results: US20100249030A1, “ANTI-MITOTIC AGENT AND AURORA KINASE INHIBITOR COMBINATION AS ANTI-CANCER TREATMENT” (Schering Corporation, priority 2007, published 2010)
For part of these data: For at least one compound, name, drawing or mass did not settle the structure. Some entries share one result that the patent states for a list of compounds.

Key:
phos-MPM2 marker = assay: Exit from mitosis measured by phos-MPM2 marker after anti-mitotic induced arrest; assay type: cell-based; settings: taxane and KSP induced arrest
Description: Single agent Aurora kinase inhibitors require a drug exposure time of 24 hours to induce endoreduplication in asynchronous cells.

[1] = tested on: HCT-116 colon cancer cells; assay: FACS (flow cytometric) analysis of endoreduplication (>4N DNA content) in HCT-116 colon cancer cells; assay type: cell-based; settings: following 16 hour pre-treatment with taxanes (Taxol or Taxotere) or KSP inhibitors (Ispinesib SB-715992 or COMPOUND A)
Description: Asynchronous cells require 24 hour exposure to Aurora kinase inhibitors (such as 250 nM VX-680 or 1000 nM COMPOUND X. (Compound X is disclosed in WO 2008/057512, filed Nov. 6, 2007, Example 4-3 and Claim 70, Example 4-3 and Claim 70 and is shown below and it is represented in Formula H and Table 2, column 2, row 17 of the present application) or 25 nM COMPOUND Z (Compound Z is disclosed in PCT US2008/007295, filed Jun. 11, 2008, Example 76-2 and Claim 25, row 7, column 4 and it is represented in Table 13, compound 76-2 of the present application)) to induce endoreduplication (>4N DNA content) or cell death. […] Cells were analyzed by FACS after a total of 72 hours.
For example, HCT-116 colon cancer cells were treated with 1000 nM COMPOUND X or 25 nM COMPOUND Z for the indicated times at which time the drug was washed off and replaced with new media see FIG. 2 and FIG. 9 respectively. Cells were analyzed by FACS after a total of 24 hours.
For example, HCT-116 colon cancer cells were treated for 16 hours with DMSO (FIG. 3) or 5 nM taxotere and then exposed to DMSO or 1000 nM COMPOUND X or 25 nM COMPOUND Z for 4, 8, and 24 hours. […] Cells were harvested after 24 hours and analyzed by FACS (see FIG. 4 and FIG. 11 respectively). […]

O=C(Nc1c[nH]nc1-c1nc2ccc(CN3CCOCC3)cc2[nH]1)NC1CC1 [AT9283]
exit from mitosis, as measured by phos-MPM2 marker (phos-MPM2 marker): accelerated the exit from mitosis

CSc1cn2c(-c3cn[nH]c3)cnc2c(Nc2cc(C)ns2)n1 [Compound X]
time of exposure to the Aurora kinase inhibitor required to induce endoreduplication [1]: less than 4 hours

CCN(Cc1cc(Nc2nc(C)cn3c(-c4cn[nH]c4)cnc23)sn1)C(C)(C)CO [Compound Z]
time of exposure to the Aurora kinase inhibitor required to induce endoreduplication [1]: less than 4 hours
